Taken from: PubChem BioAssay AID1259254 (NCATS, 2017)
Purpose: 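Gene knock-downs that lead to re-replication, shown by excess G2 DNA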 (primary screen). System: human HCT116 colorectal cancer cells. Knock-down reagent: single siRNA against human genes. Duration: 3 days. Read-out: 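Nuclei stained with Hoechst and imaged; cell-cycle phase assigned by DNA content; G2 share scaled per plate, non-targeting siRNA 0%, GMNN siRNA 100%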. Direction: G2 robust z-score and G2 cells, % of GMNN control: higher = more G2 cells, more excess DNA replication; raw share of cells in G2: higher = larger share of cells with G2 DNA content. Hit rule: 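An siRNA counts as active if its G2 robust z-score lies at least 5 MADs above the screen median; here such calls match roughly 38% of GMNN control or more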.
Shown is an unselected part of about 59,000 reagents tested. About 1,550 of all reagents (2.6%) were called active. 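G2 share is only a proxy for re-replication; each gene was hit by three separate siRNAs, and active genes were retested.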 Raw values are not corrected between plates. Entries without a mark were called inactive. Reagents against one gene are numbered here. Not stated in the record: the amount of reagent.

gene	reagent no.	G2 robust z-score	G2 cells, % of GMNN control	raw share of cells in G2 (%)
DCPH1	1	-0.971	-3.87	1.68
DCPH1	2	0.892	9.24	8.61
DCPH1	3	-0.314	0.756	4.95
CFAP73	1	-1.41	-6.97	1.38
CFAP73	2	-0.301	0.847	3.77
CFAP73	3	0.164	4.12	6.4
NHLRC4	1	-0.585	-1.15	3.22
NHLRC4	2	2.85	23	11.9
NHLRC4	3	-0.767	-2.43	2.53
ATOH1	1	-0.739	-2.23	3.96
ATOH1	2	0.173	4.18	6.56
ATOH1	3	-0.453	-0.219	3.91
FAM221A	1	2.81	22.7	11.8
FAM221A	2	-0.895	-3.33	1.8
FAM221A	3	0.327	5.27	6.31
C11orf96	1	0.221	4.52	5.32
C11orf96	2	-0.68	-1.82	2.61
C11orf96	3	-0.239	1.29	5.19
TPT1	1	3	24.1	12.4
TPT1	2	0.341	5.37	6.26
TPT1	3	0.946	9.62	9.66
STPG2	1	0.5	6.49	6.01
STPG2	2	0.0213	3.12	4.25
STPG2	3	-0.657	-1.66	2.76
IL3RA	1	2.26	18.9	12.9
IL3RA	2	2.97	23.8	13.7
IL3RA	3	0.051	3.33	5.42
PHF13	1	2.28	19	10.2
PHF13	2	0.313	5.17	4.51
PHF13	3	-0.00244	2.95	4.1
PCDHGB6	1	-0.572	-1.06	4.06
PCDHGB6	2	-1.16	-5.18	2.17
PCDHGB6	3	-0.891	-3.3	4.98
REG3G	1	-0.377	0.316	2.69
REG3G	2	-0.953	-3.74	2.77
REG3G	3	2.62	21.4	9.89
ELMO2	1	0.166	4.14	6.38
ELMO2	2	-0.11	2.2	5.59
ELMO2	3	-0.67	-1.75	2.24
CWC22	1	1.48	13.4	9.62
CWC22	2	-0.453	-0.219	4.36
CWC22	3	-0.75	-2.31	2.3
OR7D4	1	-0.462	-0.283	1.74
OR7D4	2	0.195	4.34	5.83
OR7D4	3	-0.673	-1.77	2.8
CYP2B6	1	-0.0351	2.72	5.93
CYP2B6	2	-0.342	0.56	5.2
CYP2B6	3	1.15	11.1	7.91
SLC6A6	1	-0.46	-0.268	5.59
SLC6A6	2	-1.08	-4.6	2.97
SLC6A6	3	-0.521	-0.698	3.73
CNN3-DT	1	-0.29	0.926	4.46
CNN3-DT	2	2.37	19.6	9.85
CNN3-DT	3	-0.384	0.266	3.27
SRD5A1	1	-0.489	-0.471	4.39
SRD5A1	2	1.5	13.5	8.42
SRD5A1	3	0.601	7.2	8.1
SUGCT	1	0.0851	3.57	5.92
SUGCT	2	-0.334	0.62	4.57
SUGCT	3	-1.08	-4.65	1.11
LINC00479	1	-0.941	-3.66	2.6
LINC00479	2	-0.613	-1.35	2.5
LINC00479	3	-0.619	-1.38	2.59
NEK9	1	-0.509	-0.616	5.4
NEK9	2	1.71	15	10.6
NEK9	3	0.0178	3.09	4.67
CD24	1	0.12	3.81	5.02
CD24	2	6.62 (active)	49.6	28.5
CD24	3	1.3	12.1	8.52

Called active, of those listed so far:
gene	reagent no.	G2 robust z-score	G2 cells, % of GMNN control	raw share of cells in G2 (%)
CD24	2	6.62 (active)	49.6	28.5
